According to PubChem BioAssay AID1508600 (Functional Genomics Laboratory (NCATS/FGL), 2020):
About 3,700 (7%) of roughly 53,000 sequences were called active.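 How the source made its calls: active means gene knockdowns whose robust z-score for IL-1 alpha signal is at least 2 or at most -2, so actives lie on both sides; inactive means the rest.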 The list shows a part of the results.

assay: Components of the Cytosolic LPS Sensing Pathway: Gene Identification via Genome-wide siRNA Screen; settings: RAW264.7 macrophages, IL-1a HTRF, actives lie on both sides, screened at 100 nM (by protocol), cells primed 5 h with Pam3CSK4 first;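 further: robust z of the log signal after scaling to non-targeting control siRNA wells of the plate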
Procedure, shortened: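 Knockdown: 100 nM siRNA, 48h, RAW264.7. Stimulation: Pam3CSK4 5 h, then LipidA via TransIT-TKO 24 h. Output: supernatant IL-1a HTRF, negative-control-normalized, log robust z-score; viability by CellTiter-Glo.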

For GGCUAUGAGUCGACUGAUUTT against Scin, which z-score is on record?
The z-score was inactive: 1.12.

Which z-score does the source give for GGAUGCUGACAACAUAUACTT against Plk3 here?
The z-score was inactive: -0.726.

For GGAGGGAACAUGUGGAAGUTT against Ndufaf7, which z-score is on record?
Its z-score is inactive: 0.0902.

Which z-score does the source give for GCGCAGAUAUCCUGGUUUGTT against Dhx36 here?
Its z-score is active: 2.28.

Which z-score does the source give for CGCGUGCAUUAAUGCCUCUTT against Abhd16b here?
Its z-score is inactive: 0.46.

With GGGAACCUUGAAAUCAAUATT against Gpr75 as the sequence, how does the z-score read?
Its z-score is inactive: -0.192.

For CCUGGAUUUCCGGGAGUACTT against Col4a1, which z-score is on record?
Its z-score is inactive: 0.83.

With GCAUGUCUCAACUAAGGACTT against Upk3b as the sequence, how does the z-score read?
Its z-score is inactive: 1.03.

Which z-score does the source give for CGGCUUACGCAUGUCUAUGTT against Polr2a here?
Its z-score is active: -2.01.

For GCUCAGUCAUGUGACCGCATT against Fbxl18, which z-score is on record?
The z-score was active: 2.93.

Which z-score does the source give for GGACAUCUCUACAAAUUACTT against Hsp90b1 here?
Its z-score is inactive: -0.81.

For GGCCAUCGAAACUUUCUCGTT against Igf2bp1, which z-score is on record?
The z-score was inactive: -0.192.

With GCAGCUGGAUGCUACUAACTT against Klhl30 as the sequence, how does the z-score read?
Its z-score is inactive: 0.953.

Which z-score does the source give for GGGUCUUGGAUAUGUGGUUTT against Olfr1337 here?
Its z-score is inactive: -0.311.

For CCGUCAUCUACACCUAUUUTT against Olfr525, which z-score is on record?
The z-score was inactive: 0.102.

Which z-score does the source give for GGAUUGUCCUUGAUGGCUGTT against Plek2 here?
Its z-score is inactive: -0.116.

With GGAUACUAGCAGUUGUUCGTT against Arhgap39 as the sequence, how does the z-score read?
The z-score was inactive: 0.217.

Which z-score does the source give for GCAAGAUUCUUGAAAAGGATT against Maneal here?
Its z-score is inactive: 1.06.

For CCAUCAUCGCUCUGUCACATT against Olfr1391, which z-score is on record?
Its z-score is inactive: -0.448.

Which z-score does the source give for GCGACAAUUAAGUAUACUUTT against Gria2 here?
Its z-score is inactive: 1.23.

Which z-score does the source give for GGCAACGAGAGUCCAUUUCTT against Slc28a1 here?
Its z-score is inactive: 0.886.

For GGUACAAGUUAAGGUCUACTT against Vmn1r236, which z-score is on record?
The z-score was inactive: 0.572.

For GCAUCGACAUCCACUUGAATT against Kif9, which z-score is on record?
The z-score was inactive: -0.596.

With GGAGUGUUUGGUUUCUAUATT against Slc25a46 as the sequence, how does the z-score read?
The z-score was inactive: 1.69.

For GCUUAGUGGUUCUUAUUUGTT against Olfr893, which z-score is on record?
The z-score was inactive: -0.214.

With GGUGAACUUGAGGUCACACTT against Angpt4 as the sequence, how does the z-score read?
Its z-score is inactive: 0.134.

For GGACUACCAGUUUUACAUCTT against Ssr1, which z-score is on record?
Its z-score is inactive: 1.25.

For GCACUCCUGAAAAUCACCUTT against Lax1, which z-score is on record?
Its z-score is inactive: 0.776.

With CGAGAUCGAGUACUCAACUTT against Vps39 as the sequence, how does the z-score read?
Its z-score is active: -2.96.
